Reference: patent US8329720B1 (Pisgah Laboratories, Inc., priority 2007, dated 2012)

Key:
[1] = Intrinsic dissolution profile as a function of pH; format: physicochemical; conditions: 0.1N HCl (pH 1), pH 4.5 acetate buffer, pH 6.8 phosphate buffer, water; 37° C.; result in words
Procedure: The opioid salts of the present invention were tested to determine their dissolution profile as a function of pH, and as a function of ethanol concentration in acidic media (dose dumping). To perform these experiments the buffered dissolution media and acidic ethanol solutions were prepared as identified herein, “Preparation of Solutions”. The test procedure was derived from the procedures cited in the United States Pharmacopeia and National Formulary (USP), numbers <1087> and <711>. The dose dumping procedure was adopted from the United States Food and Drug Administration's guidance regarding the dose dumping of oxymorphone. The sampling interval and regimen was defined and each sample analyzed by HPLC. Results from the HPLC analyses were plotted as a function of time and dissolution condition (FIG. 37 through FIG. 97 inclusive, and FIGS. 102-105, 109, 110, 114 and 115). This procedure was used to obtain the pH and dose dumping dissolution profiles disclosed herein. […] All activities within the procedure were conducted and executed for each of the compounds reported herein. Unless otherwise stated HPLC measurements were done and reported at ambient temperature and dissolution testing was done nominally at 37° C. […]

[2] = Intrinsic dissolution dose dumping profile (ethanol concentration in acidic media, FDA protocol); format: physicochemical; conditions: 0.1N HCl with 0, 5, 20 and 40% ethanol; result in words
Description: A general overview of this concern may be found at http://www.fda.gov/ohrms/dockets/AC/05/slides/2005-4187S2—02_Hussain.ppt. This Oct. 26, 2005 overview presentation by the deputy director OPS/CDER of the FDA and entitled “Preventing Alcohol Induced Dose Dumping is a Desired Product Design Feature” describes the dose-dumping phenomenon. Dose dumping can be employed by those with the deliberate intention of abusing the drug, but may also occur during the normal/moderate consumption of alcohol while taking a prescribed medication. Simply, dose dumping is that condition “in which the complete dose may be more rapidly released from the dosage form than intended, creating a potential safety risk”. Clearly, with the opioid narcotics, dose dumping for the intention of experiencing the “high” or rush, may have severe, even deadly consequences. The presentation further categorizes the results from dose dumping testing as either vulnerable, rugged or uncertain. […]
The opioid salts of the present invention were tested to determine their dissolution profile as a function of pH, and as a function of ethanol concentration in acidic media (dose dumping). […] The sampling interval and regimen was defined and each sample analyzed by HPLC. […]

SMILES | pH dissolution profile [1] | dose dumping dissolution profile [2]
CN1CC[C@]23c4c5ccc(O)c4O[C@H]2C(=O)CC[C@H]3[C@H]1C5.Cl [hydromorphone hydrochloride, reference compound] | immediate release (IR) characteristics | exhibit dose dumping propensities
CN1CC[C@]23c4c5ccc(O)c4O[C@H]2[C@@H](O)C=C[C@H]3[C@H]1C5.O=S(=O)(O)O [morphine sulfate, reference compound] | immediate release (IR) characteristics | –
